Data reported in PubChem BioAssay AID1458 (National Center for Advancing Translational Sciences (NCATS), 2008).
In all, about 210,000 compounds went through this assay and about 5,900 (2.8%) were called active. Roughly 5% stayed inconclusive and do not appear here. Calls come from the whole dose curve; as a rule, active = well fitted activation curve with a large enough effect; inconclusive = small, poorly fitted or top-dose-only effect; inactive = no such curve, though single readings can be large or run the other way. Only a part is listed here, and it is no random draw. Where no call is shown, the source filed none.

Assay: qHTS Assay for Enhancers of SMN2 Splice Variant Expression; note: nearly all actives have a fitted effect of over 55% in size; for activity change, positive = activation: % of control where 0% means no effect
Settings: HEK293 SMN2-luciferase splicing reporter, luminescence, 30-36 h; activity change, positive = activation: at 46.1 µM (top of the series) unless noted
How it was run: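 qHTS luciferase splicing reporter: luminescence rises when SMN2 exon 7 is included in transfected HEK293 cells. Compound exposure lasted 30-36 h at 37C, with 4.5 mM final sodium butyrate as control, followed by a ONE-Glo read.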
Potency is the fitted concentration of half-maximal effect.

| Structure (SMILES) | activity change, positive = activation | Potency |
| --- | --- | --- |
| Cc1nn(C)c(C)c1NC(=O)c1ccc(Br)o1 | -30% | – |
| Cc1c(Br)c([N+](=O)[O-])nn1CC(=O)N1CCCc2ccccc21 | 34.9% | – |
| CC(C)(C)n1ncc(Oc2ccccc2[N+](=O)[O-])c(Cl)c1=O | inactive: -40.2% | – |
| FC(F)(F)c1ccc(C2[C@H]3CN(CC4CCCCC4)[C@H](c4ccccc4)C34CC2(c2ccccc2)C4)cc1 (stereo not given in full) | inactive: -68.9% | – |
| CCc1nc(OCc2ccco2)c2sc3nc4c(cc3c2n1)COC(C)(C)C4 | -32.7% | – |
| CCOc1cc(CNc2ccccc2SC)ccc1O | 29.5% | – |
| COCCCNC(=O)c1c(NC(=O)c2cc(=O)c3ccccc3o2)sc2c1CCCC2 | -43.8% | – |
| Cn1c(SCc2ccccc2)nnc1-c1ccc2c(c1)OCO2 | – | active: 22.4 µM |
| Cc1ccc(SCCNC(=O)C(C)C)cc1 | 37.3% | – |
| O=C(Nc1ccon1)c1ccc(OC2CCCC2)cc1 | – | active: 17.8 µM |
| Cc1ccc(NC(=O)c2cccnc2)cc1S(=O)(=O)N(C)C | inactive: 5.46% | – |
| Fc1ccccc1CSc1nc2ncccc2[nH]1 | – | active: 22.4 µM |
| CCn1cnc2cc(NC(=O)c3cccs3)ccc21 | – | active: 12.6 µM |
| CCC(C)NS(=O)(=O)c1ccc(S(=O)(=O)N2CC=C(c3ccc(F)cc3)CC2)cc1 (stereo not given) | inactive: -77.4% | – |
| c1ccc2c(c1)CCN(c1nc3cc4c(cc3s1)OCO4)C2 | – | active: 2.24 µM |
| COc1ccc(C2CC(=O)N(Cc3ccc(F)cc3)c3ccccc3S2)cc1OC (stereo not given) | inactive: -42% | – |
| Cc1sc(NC(=O)c2ccco2)c(C(c2cccnc2)N2CCC(C)CC2)c1C (stereo not given) | -74.1% | – |
| O=[N+]([O-])c1ccc(N/N=C/c2ccc[nH]2)cc1 | inactive: -32.1% | – |
| O=C(CSC1=NC(=O)C(c2ccccc2)C(=O)N1)Nc1ccccc1[N+](=O)[O-] (stereo not given) | 40.7% | – |
| C=CCSc1nc(=O)n2ccc(C)cc2n1 | 34.6% | – |
| CC(C)(C)c1ccc(C(=O)Nc2ccccc2Cl)cc1 | 38.7% | – |
| O=C(Nc1ccc2c(c1)OCO2)c1ccc(Br)s1 | – | active: 12.6 µM |

One compound at a time, from the list above. Order of values: activity change, positive = activation | Potency
`Cc1sc(NC(=O)c2ccco2)c(C(c2cccnc2)N2CCC(C)CC2)c1C` (stereo not given) as listed: -74.1% | –
`Cn1c(SCc2ccccc2)nnc1-c1ccc2c(c1)OCO2` as listed: – | active: 22.4 µM
`O=C(Nc1ccc2c(c1)OCO2)c1ccc(Br)s1` as listed: – | active: 12.6 µM

The list continues:

| Structure (SMILES) | activity change, positive = activation | Potency |
| --- | --- | --- |
| CCOc1ccc(C(=O)Nc2ccccc2CC)cc1[N+](=O)[O-] | inactive: 8.8% | – |
| CCN1CCN(C(=O)c2nn(-c3ccccc3)c(=O)c3ccccc23)CC1 | 31% | – |
| CCC(C)C(=O)Nc1c2c(nc3c1CCC3)CCCC2 (stereo not given) | 44.6% | – |
| O=C(CSc1nnc(Cc2ccccc2)o1)c1cc(F)ccc1F | 32.5% | – |
| CNC(=O)c1sc2nc(-c3ccc(OC)cc3)cn2c1C | 94.4% | – |
| Fc1ccc(Nc2nc3nonc3nc2Nc2cccc(C(F)(F)F)c2)cc1 | inactive: -64.5% | – |
| O=C(O)c1ccccc1NN=C1CCCCC1 | 120% | – |
| COc1cc(/C=N/O)ccc1OCc1ccccc1Cl | – | active: 11.2 µM |
| CCn1cnc2cc(NCc3ccncc3)ccc21 | 30.2% | – |
| Cc1ccc(NC(=O)CCCc2ccccc2)nc1 | – | active: 15.8 µM |
| O=C(Nc1ccc2c(c1)CCC2)c1ccccc1F | – | active: 4.47 µM |
| NNc1nc2c(-c3ccc(Cl)cc3)nnn2c2ccccc12 | – | active: 12.6 µM |
| CN(CC(=O)Nc1ccccc1Sc1ccccc1)Cc1nc2ccccc2c(=O)[nH]1 | -37.5% | – |
| O=C(Nc1ccc2nc3n(c(=O)c2c1)CCCCC3)c1ccccc1Cl | -24.8% | – |
| CCN(CCC(=O)O)c1ccccc1 | 34.2% | – |
| Cc1[nH]nc(SCC(=O)N2CCCCC2)c1[N+](=O)[O-] | 52.9% | – |
| Cc1cc(C)nc(SCc2ccc(C(=O)NNC(=O)Nc3cccc(Cl)c3)cc2)n1 | -112% | – |
| O=C(COc1ccccc1Cl)Nc1ccc2c(c1)OCCO2 | 41.8% | – |
| CCc1cccc(C)c1NC(=O)c1ccc(CN2CCc3ccccc3C2)cc1 | -43.9% | – |
| c1ccc(-n2ncc3c(NCc4cccs4)ncnc32)cc1 | – | active: 11.2 µM |
| CCc1nnc(NC(=O)Cc2ccc(OC)cc2)s1 | 49.7% | – |
| CCC(CC)C(=O)N1CCN(c2cccc(C)c2C)CC1 | -62.4% | – |

| Structure (SMILES) | activity change, positive = activation | Potency |
| --- | --- | --- |
| O=C(Nc1ccc(OC(F)(F)F)cc1)C(Cc1ccccc1)NS(=O)(=O)c1cccc2nsnc12 (stereo not given) | inactive: -30.9% | – |
| c1ccc(CSCc2cn3ccsc3n2)cc1 | – | active: 12.6 µM |
| CCn1c(C)nc2cc(C(=O)N/N=C/c3ccccc3)ccc21 | – | active: 17.8 µM |
| COCC(=O)N1CCC2(CC1)CN(c1ccc(-c3ccccc3)cc1)C2 | inactive: -44.5% | – |
| Cc1ccc(Cc2cnc(NC(=O)CN3CCOCC3)s2)cc1Cl | -52.1% | – |
| Cn1nc(/C=C/c2ccccc2)ccc1=O | – | active: 12.6 µM |
| O=C(CN1C(=O)c2cccc3cccc1c23)N1CCN(c2cccc(Cl)c2)CC1 | 40.4% | – |
| CC(Oc1ccccc1)C(=O)Nc1ccccc1F (stereo not given) | 35.5% | – |
| O=C(Nc1ccc(N2CCN(c3ccc(O)cc3)CC2)cc1)Oc1ccccc1 | 37.5% | – |
| CSc1nc(NC(C)C)nc(N2CCOCC2)n1 | 28.2% | – |
| O=c1c(Br)c(Br)cnn1-c1ccccc1 | inactive: -104% | – |
| O=C(CSc1nnc(NC(=O)Cc2ccc(F)cc2)s1)NCc1ccco1 | 36.4% | – |
| COc1ccc(CCNC(=O)c2cc(-c3ccco3)on2)cc1OC | inactive: -29% | – |
| CN1CCN(C2=C(Cl)C(=O)N(CCc3ccccc3)C2=O)CC1 | – | active: 12.6 µM |
| CCCCNc1ccc(C(=O)OCCN(C)C)cc1 | -30.9% | – |
| Cc1ccn2c(CN3CCOCC3)c(-c3ccccc3)nc2c1 | – | active: 20 µM |
| Cc1ccc(-n2c(Cn3c(C)nc4ccccc43)n[nH]c2=S)cc1 | 14% | – |
| Nc1nc(NC(=O)C(Cl)(Cl)Cl)nn1-c1ccccc1 | 5.61% | – |
| Cc1ccccc1C(=O)NCc1nnc(SCC(=O)N2CCN(c3ccccc3)CC2)n1C | -33.4% | – |
| Cc1cc(C(=O)N/N=C/c2cc([N+](=O)[O-])cc(C)c2O)n[nH]1 | -86.1% | – |
| CCCNC(=O)c1noc2c1CCc1ccccc1-2 | – | active: 15.8 µM |
| O=C(NCCc1nc2ccccc2[nH]1)/C(=C/c1ccco1)NC(=O)c1ccco1 | 17.9% | – |

Single entries from the entries so far.
For Potency, `CCn1c(C)nc2cc(C(=O)N/N=C/c3ccccc3)ccc21` has active: 17.8 µM
For Potency, `c1ccc(CSCc2cn3ccsc3n2)cc1` has active: 12.6 µM
For activity change, positive = activation, `Cc1ccccc1C(=O)NCc1nnc(SCC(=O)N2CCN(c3ccccc3)CC2)n1C` has -33.4%
For activity change, positive = activation, `O=c1c(Br)c(Br)cnn1-c1ccccc1` has inactive: -104%
For Potency, `CN1CCN(C2=C(Cl)C(=O)N(CCc3ccccc3)C2=O)CC1` has active: 12.6 µM

(more compounds)

| Structure (SMILES) | activity change, positive = activation | Potency |
| --- | --- | --- |
| Cc1ccc(NS(=O)(=O)c2cc(C(=O)Nc3cccc([N+](=O)[O-])c3)ccc2C)cc1 | -41.1% | – |
| C=CCn1c(N)c(C(=O)N2CCOCC2)sc1=S | 17.6% | – |
| CC(C)CN(CC(C)C)S(=O)(=O)N1CCC(C(=O)NCc2ccc3c(c2)OCO3)CC1 | inactive: -20.6% | – |
| CC(OC(=O)C1CCN(S(=O)(=O)c2ccccc2)CC1)C(=O)Nc1ncc(Cl)cc1Cl (stereo not given) | 37.3% | – |
| COCCn1c(N)c(S(=O)(=O)c2cccs2)c2nc3ccccc3nc21 | 31.9% | – |
| Cc1ccc(CNc2nc3ccccc3n3nnnc23)cc1 | 46.9% | – |
| Cc1cccc(N2CCN(C(=O)C34CC5CC(CC(C5)C3)C4)CC2)c1C | 34.1% | – |
| Cc1noc(C)c1CSCC(=O)N1CCN(c2ccc([N+](=O)[O-])cc2)CC1 | inactive: -83.2% | – |
| CC(C)=CCC1=C(O)c2ccccc2C(=O)C1=O | – | active: 3.98 µM |
| COc1ccc(N(Cc2ccccc2)C(=O)c2nc(S(C)(=O)=O)ncc2Cl)cc1 | inactive: -96.5% | – |
| COC(=O)c1ccccc1NC(=O)Nc1cnccn1 | 36.7% | – |
| CC(Cc1ccc(O)c(O)c1)(NN)C(=O)O (stereo not given) | inactive: -1.01% | – |
| O=C(NC(=S)Nc1ccc(N2CCOCC2)cc1)c1ccco1 | – | active: 15.8 µM |
| COc1ccc(OC)c(-c2[nH]nc3c2C(c2ccco2)C(C#N)=C(N)O3)c1 (stereo not given) | 37.7% | – |
| CCC1=Nc2cc(C(=O)NCCc3ccc(OC)c(OC)c3)ccc2Sc2ccccc21 | inactive: -39.5% | – |
| CC(=O)Nc1ccc(N/C=C/C(=O)c2ccco2)cc1 | – | active: 28.2 µM |
| COCCn1c(CN2CCN(c3cccc(Cl)c3)CC2)nc2c1c(=O)n(C)c(=O)n2C | inactive: -60.2% | – |
| COc1cccc(C(=O)Nc2cc(C)on2)c1OC | 50.5% | – |
| Cc1onc(NC(=O)c2ccc(Cl)cc2Cl)c1Br | 148% | – |
| Cn1cccc1/C=N/NC(=O)Cc1cccc2ccccc12 | inactive: -49.8% | – |
| CCc1nn(CC(=O)N2CCC(C)CC2)c(=O)c2cc3occc3n12 | 24.9% | – |
| c1ccc(-n2ncc3c(NCc4ccco4)ncnc32)cc1 | 37.8% | – |

| Structure (SMILES) | activity change, positive = activation | Potency |
| --- | --- | --- |
| O=C(c1cccs1)N(c1ccc(Br)cc1)C1C=CS(=O)(=O)C1 (stereo not given) | inactive: 7.55% | – |
| COC(=O)c1ccccc1NC(=O)NCc1c(C)nn(C)c1C | -41.5% | – |
| CCOC(=O)/C=C/C(=O)Nc1cccc([N+](=O)[O-])c1 | -78.2% | – |
| CCC1Oc2ccccc2N(CC(=O)Nc2ccc(OC)cc2OC)C1=O (stereo not given) | 19.9% | – |
| O=C(OCn1nnc2ccccc2c1=O)c1ccc2ccccc2n1 | 33.4% | – |
| CCOC(=O)N1CCN(S(=O)(=O)c2ccc(C(=O)NNc3nc4cc(C)cc(C)c4s3)cc2)CC1 | -86.9% | – |
| CC(C)(C)c1ccc(/C=N/NC(=O)Cc2c[nH]c3ccccc23)cc1 | 33.3% | – |
| Cc1cccc(NC(=O)CSc2nnc(CNC(=O)c3cccc(C)c3)n2-c2ccccc2)c1 | inactive: -32.5% | – |
| CCn1cc(C2=NOC(C(=O)Nc3cccc(C(C)=O)c3)C2)c(C)n1 (stereo not given) | -41.4% | – |
| CCCc1cc(=O)n2[nH]c(SCc3ccccc3)nc2n1 | 32.3% | – |
| O=C(Nc1nccs1)c1ccc(S(=O)(=O)NCC2CCCCC2)cc1 | inactive: -45.9% | – |
| COc1ccc(C(=O)/C(=C\c2ccco2)N2C=CC=CC2=C(C#N)C#N)cc1 | inactive: -66.7% | – |
| CN(CCCC(=O)Nc1ccncc1)S(=O)(=O)c1ccc(Cl)cc1 | inactive: -34.6% | – |
| COc1ccc(CCNC(=O)Cc2ccc(OCc3ccccc3)c(OC)c2[N+](=O)[O-])cc1OCc1ccccc1 | inactive: -34.4% | – |
| CC(=O)Nc1ccc(S(=O)(=O)N2CCN(c3nc(NC4CCCC4)c4ccccc4n3)CC2)cc1 | -73% | – |
| O=C(/C=C/c1ccc(Cl)cc1Cl)Nc1ccc(CN2CCOCC2)cc1 | inactive: -76.6% | – |
| Cc1ccc(C(=O)Nc2cc3ccccc3oc2=O)cc1 | -50.1% | – |
| CCn1c(SCC(=O)N2CCN(c3ccccc3)CC2)nnc1-c1cc2cc(Cl)ccc2o1 | -87.6% | – |
| COc1ccccc1NS(=O)(=O)c1ccc(NC(=O)c2ccncc2)cc1 | inactive: -43.4% | – |
| CCCCNC(=O)/C(C#N)=C/c1cccnc1 | – | active: 5.01 µM |
| N#Cc1c(N)nc(SCc2ccccn2)c(C#N)c1-c1cccs1 | inactive: -47.5% | – |
| CC(C)(C)NC(=O)CSc1nc2ccc(Nc3nc(N4CCOCC4)nc(N4CCOCC4)n3)cc2s1 | inactive: -48.5% | – |
